Test results: publication PMC7819943, “Rice protein-binding microarrays: a tool to detect cis-acting elements near promoter regions in rice”
This is one part of the list.

By UniProt entry, the sequences of proteins in these tests, tags left out.
UniProt Q0JBA9, entry or part of it: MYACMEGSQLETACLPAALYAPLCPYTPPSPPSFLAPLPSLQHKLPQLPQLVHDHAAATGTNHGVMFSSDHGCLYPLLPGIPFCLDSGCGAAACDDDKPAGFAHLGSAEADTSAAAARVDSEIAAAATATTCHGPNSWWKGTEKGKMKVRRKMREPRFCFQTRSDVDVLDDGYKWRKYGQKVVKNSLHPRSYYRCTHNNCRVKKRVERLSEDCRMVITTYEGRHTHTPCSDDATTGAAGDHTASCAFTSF

molecular target: OsWRKY34 (Oryza sativa, UniProt Q0JBA9 1-250); test: protein-binding microarray (RPBM); PBS, 2% BSA, 51.3 ng/ul salmon testes DNA, 50 uM zinc acetate, 200 nM TF, 25 C, 1 h; high values mean tight binding; conditions: protein: recombinant; tags: N-terminal polyhistidine and DsRed monomer fusion (pET32a); label: CyDye5-dUTP incorporated in the synthesized complementary strand; 3' TTTTT single-stranded linker to array surface; dsDNA, one strand shown
How it was run: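 Transcription factors, each fused N-terminally to a polyhistidine tag and DsRed, were expressed in E. coli BL21-CodonPlus and purified on Ni–NTA. A custom Agilent array was made double-stranded by primer extension with Cy5-dUTP and blocked with 2% BSA. It was incubated with 200 nM protein in PBS, 2% BSA, salmon testes DNA and 50 µM zinc acetate at 25 °C for 1 h, then washed. The binding signal is per-feature fluorescence intensity (arbitrary units) read on an Axon 4000B scanner.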

Question: For “GCCTTGTGCCGTGCTCTAAAGATTCTTGGACACCTCTTATCGGAGTCACCTAGTGCAG”, which binding signal is on record?
Answer: The binding signal was 8370 fluorescence intensity (a.u.).

Question: Which binding signal does the source give for “ATCTATCCATATAATTAATTATATCATCCATTAGTTTTCACGGAGTCACCTAGTGCAG” here?
Answer: The binding signal was 10600 fluorescence intensity (a.u.).

Question: Which binding signal does the source give for “TGCTATTGCTCTGCCCGCATCCCTCCCTCGTCTCGTCTCGCGGAGTCACCTAGTGCAG” here?
Answer: Its binding signal is 9050 fluorescence intensity (a.u.).

Question: Which binding signal does the source give for “GTTTCAAATATTTTCCCCTTCTAACTGTATTTGATCTGATCGGAGTCACCTAGTGCAG” here?
Answer: The binding signal was 8870 fluorescence intensity (a.u.).

Question: With “GTTTGCCTCCTACTCTGTACTGCGCCGTCGCTCGTAGACTCGGAGTCACCTAGTGCAG” as the sequence, how does the binding signal read?
Answer: The binding signal was 8410 fluorescence intensity (a.u.).

Question: Which binding signal does the source give for “GATATATATTTATAGAGGATTAAGGTAGTGGTGGAGCGCACGGAGTCACCTAGTGCAG” here?
Answer: Its binding signal is 9980 fluorescence intensity (a.u.).

Question: Which binding signal does the source give for “GCGTGAGGGAATCGCGTTCCATCTAGTTTTCCTATAGTCGCGGAGTCACCTAGTGCAG” here?
Answer: The binding signal was 9220 fluorescence intensity (a.u.).

Question: “AAAGAAAGACTCAACTGCCGAGTCTCCGGTCCCACATCCACGGAGTCACCTAGTGCAG” was tested. Which binding signal did it give?
Answer: Its binding signal is 9080 fluorescence intensity (a.u.).

Question: Which binding signal does the source give for “GGTAAGCATATGTCTCCTTGGATTCTAATCTCATGGTTGACGGAGTCACCTAGTGCAG” here?
Answer: The binding signal was 10500 fluorescence intensity (a.u.).

Question: Which binding signal does the source give for “TCTTGTCCTCTACCGCCGCGACGGACCACGACCACTCCCTCGGAGTCACCTAGTGCAG” here?
Answer: The binding signal was 8180 fluorescence intensity (a.u.).

Question: How did the binding signal turn out when “TTCTTCAGTTCTTCTTCTTCTAATCATGCATGTTCCCGATCGGAGTCACCTAGTGCAG” was run?
Answer: The binding signal was 9700 fluorescence intensity (a.u.).

Question: Which binding signal does the source give for “ATGCTGATATCTTGCAATTTGCACACACTTCTCACCTGCTCGGAGTCACCTAGTGCAG” here?
Answer: The binding signal was 9620 fluorescence intensity (a.u.).

Question: Which binding signal does the source give for “TGGCTTGTATGTTGTTCCGTAGATTGTGGTGGGTGTTGATCGGAGTCACCTAGTGCAG” here?
Answer: Its binding signal is 12600 fluorescence intensity (a.u.).

Question: With “AGCAAAGGGCTGCTTCTACTTCTTATCCATCTCACACATCCGGAGTCACCTAGTGCAG” as the sequence, how does the binding signal read?
Answer: The binding signal was 8870 fluorescence intensity (a.u.).

Question: Which binding signal does the source give for “AATCCACGAGCACCAGCGATCGCCGTCATCCTCCGCCATGCGGAGTCACCTAGTGCAG” here?
Answer: Its binding signal is 8410 fluorescence intensity (a.u.).

Question: For “CTTTTAGCTCACCCGCTGTATCTTGCATGCTGTGTTGCCACGGAGTCACCTAGTGCAG”, which binding signal is on record?
Answer: Its binding signal is 9250 fluorescence intensity (a.u.).

Question: “TGGGTGGCTTTTGCTATTTTCTTGCTATGTACTAGTTCCACGGAGTCACCTAGTGCAG” was tested. Which binding signal did it give?
Answer: Its binding signal is 10000 fluorescence intensity (a.u.).

Question: Which binding signal does the source give for “TCTCCGTTCCATACTCTTCTCTCCATGCCGAACATTTCTTCGGAGTCACCTAGTGCAG” here?
Answer: Its binding signal is 9970 fluorescence intensity (a.u.).

Question: Which binding signal does the source give for “GCTCTTCTCTCTCTCTCTATCTCTAGCATTCTCTCTCTGACGGAGTCACCTAGTGCAG” here?
Answer: The binding signal was 13900 fluorescence intensity (a.u.).

Question: With “TGAATATAGTTCCAGTAATTAATTACATTGCATATATCTCCGGAGTCACCTAGTGCAG” as the sequence, how does the binding signal read?
Answer: Its binding signal is 8090 fluorescence intensity (a.u.).

Question: Which binding signal does the source give for “GTCGTCGTCGTTGTTCGCTTCTGCCCGACTACCGCGTGCTCGGAGTCACCTAGTGCAG” here?
Answer: The binding signal was 10900 fluorescence intensity (a.u.).

Question: How did the binding signal turn out when “CACTGTCATTTCTTCCTTGCTTGCTTGTATAAACCTTGAACGGAGTCACCTAGTGCAG” was run?
Answer: Its binding signal is 13500 fluorescence intensity (a.u.).

Question: How did the binding signal turn out when “AACAACTTAATTTCCCTTTTTCCAGTTGATAACGTGCAATCGGAGTCACCTAGTGCAG” was run?
Answer: The binding signal was 8040 fluorescence intensity (a.u.).

Question: Which binding signal does the source give for “CCCTATCAACTTCCCACCCACATCCACCGAAGGCACAGCACGGAGTCACCTAGTGCAG” here?
Answer: Its binding signal is 8040 fluorescence intensity (a.u.).

Question: Which binding signal does the source give for “ACAACCGCATCCGATTCCATGGCCCAACCGCGCGCGCGCACGGAGTCACCTAGTGCAG” here?
Answer: The binding signal was 9170 fluorescence intensity (a.u.).

Question: “ATTGTTCTCACAGCTCATTACACATAGCCCGCTCGGTCATCGGAGTCACCTAGTGCAG” was tested. Which binding signal did it give?
Answer: Its binding signal is 9130 fluorescence intensity (a.u.).

Question: Which binding signal does the source give for “TATCCACATACCACCTCTCCATTGGACCACAGTTTCTCTCCGGAGTCACCTAGTGCAG” here?
Answer: The binding signal was 8340 fluorescence intensity (a.u.).

Question: How did the binding signal turn out when “TCAGTGTTGAGTAGGGTTGGCAGGCGAGCACGCAGTAATGCGGAGTCACCTAGTGCAG” was run?
Answer: The binding signal was 8190 fluorescence intensity (a.u.).

Question: Which binding signal does the source give for “GCCTTTTTCTTGCGTGTAGGTTGTTCTGTTGAGAGAAAGACGGAGTCACCTAGTGCAG” here?
Answer: The binding signal was 17700 fluorescence intensity (a.u.).

Question: With “CATATATAAATCGTACGTACTCAGGGTGTTGGGCAGATCACGGAGTCACCTAGTGCAG” as the sequence, how does the binding signal read?
Answer: Its binding signal is 8192 fluorescence intensity (a.u.).

Question: For “AGGTTGGTAACTCGTAGCTGGGCATTGTCACTTCTTGTTCCGGAGTCACCTAGTGCAG”, which binding signal is on record?
Answer: The binding signal was 11700 fluorescence intensity (a.u.).

Question: For “GATGCGGGTCGGGGAGATCGGGGATTTGAGGGCAGCGGGACGGAGTCACCTAGTGCAG”, which binding signal is on record?
Answer: Its binding signal is 9890 fluorescence intensity (a.u.).

Question: How did the binding signal turn out when “GCTTTTCAGCTTTCTAGGACAGCATCTCTACTTTCAGTTTCGGAGTCACCTAGTGCAG” was run?
Answer: Its binding signal is 8610 fluorescence intensity (a.u.).

Question: With “CTGGTTTTTAAGTTCGCTTTTTAGATTTTGTTACTATATACGGAGTCACCTAGTGCAG” as the sequence, how does the binding signal read?
Answer: The binding signal was 9930 fluorescence intensity (a.u.).

Question: For “CCTCACGGATAAGGGCGGGATGTTTTCGGCCGAAACCGTGCGGAGTCACCTAGTGCAG”, which binding signal is on record?
Answer: Its binding signal is 8050 fluorescence intensity (a.u.).

Question: How did the binding signal turn out when “CTTTCGTACGACTCGTCATTATCACCGTGTCTCTCGTAAGCGGAGTCACCTAGTGCAG” was run?
Answer: The binding signal was 8040 fluorescence intensity (a.u.).

Question: With “ATCCGGTTTACACCATTTTACTCGTGTCCTATTTTTACCGCGGAGTCACCTAGTGCAG” as the sequence, how does the binding signal read?
Answer: The binding signal was 11600 fluorescence intensity (a.u.).

Question: “ACGCCGGTCATCCTCATCTGCTGCTTCTTCCACAATAGATCGGAGTCACCTAGTGCAG” was tested. Which binding signal did it give?
Answer: Its binding signal is 9110 fluorescence intensity (a.u.).

Question: Which binding signal does the source give for “CCACGCCACGCCACGCCACCTTGCGCGCGCGCGCGCACACCGGAGTCACCTAGTGCAG” here?
Answer: The binding signal was 9410 fluorescence intensity (a.u.).

Question: How did the binding signal turn out when “CCGGTGGTCCTGGTGGTGGTTGTGTTTGTCGGCGTTGTGGCGGAGTCACCTAGTGCAG” was run?
Answer: The binding signal was 9470 fluorescence intensity (a.u.).

Question: Which binding signal does the source give for “AAATTTTTATATGCTGTGTATTTTCTATTTTTTTTATTTTCGGAGTCACCTAGTGCAG” here?
Answer: The binding signal was 11100 fluorescence intensity (a.u.).

Question: For “ATTGTATTTCTATATGGACTCTGCTTTTTATTTTTCTCCGCGGAGTCACCTAGTGCAG”, which binding signal is on record?
Answer: The binding signal was 8930 fluorescence intensity (a.u.).
